Source: the supplement of paper PMC7877785
± gives the uncertainty stated by the source. The uncertainty is large for many entries.

Assay: self-splicing fitness, log relative to wild type (ln ratio); higher = more splicing; Tetrahymena group I intron in knt gene, E. coli kanamycin selection, DiMSum; sequences stand for … in CUCUCU…GGAGGGAAAAGUUAUCAGGCAUGCACCUGGUAGCUAGUCUUUAAACCAAUAGAUUGCAUCGGUUUAAAAGGCAAGACCGUCAAAUUGCGGGAAAGGGGUCAACAGCCGUUCAGUACCAAGUCUCAGGGGAAACUUUGAGAUGGCCUUGCAAAGGGUAUGGUAAUAAGCUGACGGACAUGGUCCUAACCACGCAGCCAAGUCCUAAGUCAACAGAUCUUCUGUUGAUAUGGAUGCAGUUCACAGACUAAAUGUCGGUCGGGGAAGAUGUAUUCUUCUCAUAAGAUAUAGUCGGACCUCUCCUUAAUGGGAGCUAGCGGAUGAAGUGAUGCAACACUGGAGCCGCUGGGAACUAAUUUGUAUGCGAAAGUAUAUUGAUUAGUUUUGGAGUACUCGUGGUCG
Outline: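 Library with all eight P1ex-region intron nucleotides randomised, intron inside the knt kanamycin-resistance gene on pET-22b(+), in E. coli BL21(DE3). Cells grew overnight at 37°C or 30°C on LB agar with or without 25 μg/mL kanamycin (plus 100 μg/mL carbenicillin, 50 μM IPTG, 0.2% rhamnose), in six replicate transformations. Pooled colonies were amplicon-sequenced on Illumina HiSeq 2500. DiMSum fitness is the error-weighted combination of wild-type-normalised replicate fold changes, kanamycin versus none.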

Sequence | self-splicing fitness (ln) (30 °C) | self-splicing fitness (ln) (37 °C)
CGGUAGCAAUAUUACGCUCG | -2.26 ± 0.9 | 
CCAGAGCAAUAUUACGCCUA | -2.9 ± 0.78 | -2.39 ± 1.1
GGAGAGCAAUAUUACGUUCC | -4.39 ± 1 | 
AAAGAGCAAUAUUACGCCAA |  | -1.13 ± 0.55
AUCAAGCAAUAUUACGCGAU | -4.42 ± 0.33 | -3.08 ± 0.3
ACGGAGCAAUAUUACGGCAA | -2.98 ± 0.3 | -2.61 ± 0.27
CCGCAGCAAUAUUACGAUAC | -2.77 ± 0.28 | -2.19 ± 0.46
GGCUAGCAAUAUUACGAUGG | -4.24 ± 0.59 | 
GGGGAGCAAUAUUACGAGAG |  | -1.6 ± 0.59
UUCCAGCAAUAUUACGCAAC |  | -2.49 ± 0.63
UAGGAGCAAUAUUACGAUAU | -3.96 ± 0.33 | -2.46 ± 0.28
CGGGAGCAAUAUUACGGCCA | 0.987 ± 0.73 | -1.33 ± 0.64
AGUGAGCAAUAUUACGAGAA |  | 0.161 ± 0.71
UUGGAGCAAUAUUACGCCGC | -2.65 ± 1.1 | 
CCUAAGCAAUAUUACGACGC | -2.7 ± 0.61 | 
UGAGAGCAAUAUUACGUUGG | -4.35 ± 0.51 | 
GACGAGCAAUAUUACGUCGG | -4.28 ± 0.73 | 
CGCGAGCAAUAUUACGGUCG | -3.27 ± 0.74 | -3.25 ± 1
GAGAAGCAAUAUUACGCCGG | -2.05 ± 0.44 | 0.0344 ± 0.4
UUGGAGCAAUAUUACGGGCA | -2.31 ± 0.57 | 

Sequence | self-splicing fitness (ln) (30 °C) | self-splicing fitness (ln) (37 °C)
UGGGAGCAAUAUUACGAUAU | -4.03 ± 0.53 | -2.96 ± 0.53
UCGGAGCAAUAUUACGUUCA | -2.2 ± 0.53 | 
CCGCAGCAAUAUUACGCCAA | -3.73 ± 0.38 | -2.06 ± 0.34
AUCAAGCAAUAUUACGGUAG | -4.33 ± 0.51 | 
GUCGAGCAAUAUUACGUGGA | -3.34 ± 0.74 | 
GUGCAGCAAUAUUACGUGCC | -3.63 ± 0.61 | -3.41 ± 0.73
GUUGAGCAAUAUUACGGCCA | -3.87 ± 0.73 | 
CCUAAGCAAUAUUACGGAGC |  | -3.14 ± 0.6
UAGAAGCAAUAUUACGAAGC | -4.07 ± 0.73 | 
AUUAAGCAAUAUUACGCCAC | -2.88 ± 0.75 | 
GAGCAGCAAUAUUACGAAGG | -4.63 ± 0.72 | 
AGAUAGCAAUAUUACGGCCU | -0.604 ± 0.11 | 0.606 ± 0.14
UUUGAGCAAUAUUACGAGUC |  | -1.66 ± 0.53
AGCAAGCAAUAUUACGAUAA | -2.16 ± 0.12 | 0.308 ± 0.11
CAUGAGCAAUAUUACGACUA |  | -3.58 ± 0.59
CAGUAGCAAUAUUACGCAAU |  | -3.23 ± 0.6
AUUUAGCAAUAUUACGGUAC | -3.26 ± 0.62 | 
GGGGAGCAAUAUUACGCUAG |  | -3.27 ± 0.52
GCAGAGCAAUAUUACGCAGC |  | -1.64 ± 0.66
AUUUAGCAAUAUUACGAAUU | -3.21 ± 0.35 | -1.85 ± 0.38

Single records (already shown):
AUCAAGCAAUAUUACGGUAG as listed: self-splicing fitness (ln) (30 °C) = -4.33 ± 0.51
UCGGAGCAAUAUUACGUUCA as listed: self-splicing fitness (ln) (30 °C) = -2.2 ± 0.53

(cont.)

Sequence | self-splicing fitness (ln) (30 °C) | self-splicing fitness (ln) (37 °C)
CCUUAGCAAUAUUACGACUA | -2.77 ± 0.51 | -2.23 ± 0.5
CGCGAGCAAUAUUACGCCCU | -3.1 ± 0.29 | -2.5 ± 0.39
UUGUAGCAAUAUUACGCUGC | -2.43 ± 0.66 | -0.687 ± 0.59
GACCAGCAAUAUUACGUCCA | -1.75 ± 0.095 | -0.749 ± 0.095
UCCAAGCAAUAUUACGCCCC | -0.572 ± 1.2 | 
CGUAAGCAAUAUUACGCAGA | -2.28 ± 0.27 | -2.67 ± 0.38
GUGGAGCAAUAUUACGCGCC | -3.31 ± 0.6 | -2.36 ± 0.62
UGUUAGCAAUAUUACGAUGA | -0.408 ± 0.09 | -1.06 ± 0.092
AGUUAGCAAUAUUACGCCGC |  | -0.457 ± 0.68
UCUAAGCAAUAUUACGACGG | 0.00998 ± 0.076 | 0.286 ± 0.11
CGAAAGCAAUAUUACGCCCC | 1.22 ± 1 | -0.927 ± 1.2
CUUAAGCAAUAUUACGCCGA |  | -2.54 ± 0.76
GCAGAGCAAUAUUACGUCAU | -4.16 ± 0.72 | 
CCCGAGCAAUAUUACGUACC |  | -2.64 ± 0.77
GGUGAGCAAUAUUACGCUCG | -3.53 ± 0.6 | 
UUUAAGCAAUAUUACGCUGC | -1.27 ± 1 | -0.681 ± 1.4
GGUGAGCAAUAUUACGCAUC |  | 0.231 ± 0.68
CCUAAGCAAUAUUACGCAAU | -3.49 ± 0.54 | -4 ± 0.72
